Laboratory results from paper PMC9883236.
These are yes or no findings as the source states them, for the method shown. Binding seen in cells or lysates may run through a third protein. Some results given as binding are weak or reduced against the parent protein; the word gives no strength.

The chains behind the UniProt entries cited, without tags or fusion partners. Where a name states a change or a piece, a line headed by the entry shows the natural chain unless it says otherwise.
UniProt O94874: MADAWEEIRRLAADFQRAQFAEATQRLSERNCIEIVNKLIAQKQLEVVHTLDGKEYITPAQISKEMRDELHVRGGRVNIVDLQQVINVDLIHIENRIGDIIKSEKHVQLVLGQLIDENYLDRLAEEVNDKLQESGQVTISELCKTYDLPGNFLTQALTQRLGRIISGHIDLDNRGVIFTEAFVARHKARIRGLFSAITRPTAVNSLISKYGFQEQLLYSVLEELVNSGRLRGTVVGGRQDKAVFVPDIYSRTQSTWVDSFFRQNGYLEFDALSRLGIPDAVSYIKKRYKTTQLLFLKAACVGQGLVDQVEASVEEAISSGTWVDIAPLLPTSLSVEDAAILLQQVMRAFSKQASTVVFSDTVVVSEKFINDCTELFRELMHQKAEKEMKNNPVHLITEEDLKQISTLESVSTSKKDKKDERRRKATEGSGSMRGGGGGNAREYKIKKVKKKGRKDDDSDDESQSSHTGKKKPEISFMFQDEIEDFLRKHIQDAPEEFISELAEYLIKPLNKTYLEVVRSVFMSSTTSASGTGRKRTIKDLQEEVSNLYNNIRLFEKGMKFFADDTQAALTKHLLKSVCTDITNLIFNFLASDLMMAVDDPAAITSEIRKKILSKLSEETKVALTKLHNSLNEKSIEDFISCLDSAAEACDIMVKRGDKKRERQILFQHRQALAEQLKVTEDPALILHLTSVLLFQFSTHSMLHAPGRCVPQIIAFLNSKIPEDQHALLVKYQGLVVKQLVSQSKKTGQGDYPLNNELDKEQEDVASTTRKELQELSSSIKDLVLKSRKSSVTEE
UniProt Q86WV6: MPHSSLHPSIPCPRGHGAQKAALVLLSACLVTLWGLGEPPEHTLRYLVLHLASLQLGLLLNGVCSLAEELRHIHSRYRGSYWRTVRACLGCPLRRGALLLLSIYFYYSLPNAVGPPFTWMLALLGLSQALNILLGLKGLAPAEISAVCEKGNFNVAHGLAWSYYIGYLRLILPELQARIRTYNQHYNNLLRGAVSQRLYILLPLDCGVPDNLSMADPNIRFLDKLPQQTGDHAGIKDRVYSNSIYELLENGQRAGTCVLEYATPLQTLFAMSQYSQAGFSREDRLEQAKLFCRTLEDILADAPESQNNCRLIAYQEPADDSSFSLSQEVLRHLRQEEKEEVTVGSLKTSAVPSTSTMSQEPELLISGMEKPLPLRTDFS
UniProt Q99942: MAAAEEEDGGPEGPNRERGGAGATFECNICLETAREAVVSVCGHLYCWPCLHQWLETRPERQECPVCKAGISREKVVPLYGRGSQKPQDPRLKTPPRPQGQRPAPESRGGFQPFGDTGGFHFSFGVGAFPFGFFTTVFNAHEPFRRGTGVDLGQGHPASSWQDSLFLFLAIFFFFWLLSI

Columns and labels:
[1] = biological target: V5-tagged UFL1 (UFM1-specific ligase 1), full length (UniProt O94874); assay: co-IP; HEK293T cells transfected with full-length or truncated STING and UFL1; UFL1 immunoprecipitation, immunoblot
[2] = biological target: V5-tagged UFL1 (UFM1-specific ligase 1), full length (UniProt O94874); assay: co-IP
[3] = biological target: STING-Myc (UniProt Q86WV6); assay: co-IP; 293T cells cotransfected with TRIM29, RNF5 or TRIM30a and STING with varying doses of UFL1; co-immunoprecipitation, immunoblot

## STING, full length (FL), as used with the truncation mutants of Fig. 4I and 4J (from UniProt Q86WV6 1-379)
[1]
  binding: binds

## Flag-tagged STING (stimulator of interferon genes) (from UniProt Q86WV6 1-379)
[2]
  binding: binds

## RNF5 (ring finger 5) (from UniProt Q99942 1-180) (enzyme)
[3]
  binding: binds
